Patent US20200222503A1
No constants are given. Whether binding was seen depends on the method and setting. Some binding calls cover weakened binding; strength is not graded here. One block for each substance: values may come before it.

Sequences of proteins named here, by UniProt entry; tags and fusion partners are left off. A change or cut given only in a name is not applied to a line headed by its entry. Residues count along the entry.
UniProt P27512: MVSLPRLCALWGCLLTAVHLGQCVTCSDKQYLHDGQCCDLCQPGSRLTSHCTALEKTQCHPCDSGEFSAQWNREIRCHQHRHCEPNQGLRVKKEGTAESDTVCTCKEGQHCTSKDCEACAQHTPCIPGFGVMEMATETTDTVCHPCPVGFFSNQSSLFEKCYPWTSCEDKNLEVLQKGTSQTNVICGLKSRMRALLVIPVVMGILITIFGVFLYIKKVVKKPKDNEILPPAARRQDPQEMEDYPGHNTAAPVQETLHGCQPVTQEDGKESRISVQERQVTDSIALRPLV
murine CD40 on CHOK1 cells: residues 20-289 of P27512
recombinant murine CD40 protein: residues 24-193 of P27512
UniProt P97797: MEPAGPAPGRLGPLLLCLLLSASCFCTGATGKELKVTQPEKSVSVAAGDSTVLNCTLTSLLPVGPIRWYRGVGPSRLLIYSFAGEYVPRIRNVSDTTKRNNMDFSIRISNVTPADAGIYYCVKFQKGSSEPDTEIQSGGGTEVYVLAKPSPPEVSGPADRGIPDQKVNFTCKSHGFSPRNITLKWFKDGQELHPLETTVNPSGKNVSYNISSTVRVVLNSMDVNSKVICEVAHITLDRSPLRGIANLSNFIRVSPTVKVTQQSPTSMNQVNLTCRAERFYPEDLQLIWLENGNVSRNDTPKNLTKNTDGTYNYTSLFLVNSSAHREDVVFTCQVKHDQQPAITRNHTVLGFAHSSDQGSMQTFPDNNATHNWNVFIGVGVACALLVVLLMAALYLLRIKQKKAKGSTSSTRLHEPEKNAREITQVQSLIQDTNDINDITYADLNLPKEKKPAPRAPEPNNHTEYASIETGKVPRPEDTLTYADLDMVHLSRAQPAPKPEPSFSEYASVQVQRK
UniProt Q02242: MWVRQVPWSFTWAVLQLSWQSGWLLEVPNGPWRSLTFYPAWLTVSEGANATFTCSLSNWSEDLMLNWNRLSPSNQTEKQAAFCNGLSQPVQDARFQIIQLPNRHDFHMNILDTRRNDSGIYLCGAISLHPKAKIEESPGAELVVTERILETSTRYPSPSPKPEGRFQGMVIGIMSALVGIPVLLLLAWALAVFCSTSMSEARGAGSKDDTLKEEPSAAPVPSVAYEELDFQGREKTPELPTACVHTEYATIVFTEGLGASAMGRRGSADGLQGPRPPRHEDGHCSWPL
UniProt Q8VIM0: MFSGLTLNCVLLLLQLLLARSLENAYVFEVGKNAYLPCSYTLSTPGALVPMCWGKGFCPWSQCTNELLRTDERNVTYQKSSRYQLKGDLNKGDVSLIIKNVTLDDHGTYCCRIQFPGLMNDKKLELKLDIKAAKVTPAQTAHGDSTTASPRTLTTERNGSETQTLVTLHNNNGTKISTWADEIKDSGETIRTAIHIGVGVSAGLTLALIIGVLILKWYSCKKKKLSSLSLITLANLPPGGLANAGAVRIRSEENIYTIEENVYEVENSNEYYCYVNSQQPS

Columns and labels:
[1] = target: recombinant murine CD40 protein (murine) (UniProt P27512); test: ELISA, plate-bound recombinant murine CD40, CD40L-specific antibody detection
[2] = target: recombinant murine CD40 protein (murine) (UniProt P27512); test: SPR
[3] = target: recombinant murine CD40 protein (murine) (UniProt P27512); test: ELISA
[4] = target: murine CD40 on CHOK1 cells (murine) (UniProt P27512); test: flow cytometry on CHOK1/mCD40 cells
[5] = target: T1, murine OX40 on CHOK1 cells (murine) (UniProt P47741); test: flow cytometry on transfected CHOK1 cells
T1 sequence (looked up): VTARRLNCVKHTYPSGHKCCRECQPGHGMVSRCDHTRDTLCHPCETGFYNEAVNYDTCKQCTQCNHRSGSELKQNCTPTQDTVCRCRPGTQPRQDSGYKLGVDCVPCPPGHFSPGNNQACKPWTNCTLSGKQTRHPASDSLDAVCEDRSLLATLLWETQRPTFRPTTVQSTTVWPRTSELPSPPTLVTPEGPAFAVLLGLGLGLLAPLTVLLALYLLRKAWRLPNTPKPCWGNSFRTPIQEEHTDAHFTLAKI

[6] = target: T1, murine OX40 on CHOK1 cells (murine); test: flow cytometry on CHOK1-mOX40 cells

binding [1]: binds
binding [2]: binds
binding [3]: binds
binding [4]: binds
Substance: murine CD172a(SIRPα)-Fc-CD40L chimeric protein (from UniProt P97797 32-373; P27548 47-260) (Fc fusion)

binding [5]: binds
Substance: murine PD-1-Fc-OX40L chimeric protein (from UniProt Q02242 25-169; P43488 51-198) (Fc fusion)

binding [6]: binds
Substance: murine TIM3-Fc-OX40L chimeric protein (from UniProt Q8VIM0 20-193; P43488 51-198) (Fc fusion)
